This note sets out measurements from PubChem BioAssay AID1487 (National Center for Advancing Translational Sciences (NCATS), 2009).

Some of the results follow. The main result of the screen is listed elsewhere. These columns were measured beside it and carry no call. The list favours compounds with an active or inconclusive main result. Potencies come from curve fits of mixed quality, noted in brackets.

The assay can be described thus: qHTS Assay for Modulators of Lamin A Splicing. To be noted: HeLa LMNA splicing GFP/RFP minigene ratio, 48 h. In short, it runs like this: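 S3 HeLa cells stably expressing lamin A-EGFP splicing minigene plus DsRed2, 600 cells/well, 48 h compound exposure at 37C. Laser-scanning cytometry; analysed as GFP (500-530 nm)/RFP (575-640 nm) total intensity ratio; 0.5% DMSO vehicle.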
For orientation: qHTS replaces the single test concentration by a dilution series.

Setting [1] is: measured here: RFP viability control channel.
Setting [2] is: measured here: GFP splicing reporter channel.

The term AC50 denotes the midpoint of the concentration-response curve, whichever way the signal moves. `COc1cc2c(cc1OC)-c1c(OC)c(OC)cc3ccnc(c13)C2=O`: the AC50 under setting [1] was 3.55 µM [rising, single point].
For the compound `CN(C)c1ccc(-c2nc3ccccn3c2/N=C/c2ccc(Br)cc2)cc1`, the AC50 under setting [2] was 31.6 µM [rising, single point].
Turning to `Cc1cc(C)n(-c2ccc(C(=O)Nc3ccc(C)c(S(=O)(=O)N(C)C)c3)cc2)n1`, the AC50 under setting [1] was 11.2 µM [rising, partial curve].
For `COc1c2c(nc3ccccc13)OC(C(C)(O)CO)C2` (centres undefined), the concentration at half-maximal activity (AC50) under setting [1] was 5.62 µM [falling, single point].
Regarding `COc1cccc(C(=O)Nc2ccc(Cl)c(C(F)(F)F)c2)c1`, the AC50 reads like this: under setting [2], 14.1 µM [rising, single point]; under setting [1], 12.6 µM [rising, partial curve, poor fit].
Regarding `Cc1ccc(S(=O)(=O)CCC(=O)Nc2ccc3nc(C)sc3c2)cc1`, the AC50 under setting [1] was 11.2 µM [rising, partial curve].
Still for that read-out and setting: for `O=c1[nH]cnc2sc(-c3ccccc3)cc12` the value was 12.6 µM [rising, single point].
As to `COc1ccc(C2SCCN2S(=O)(=O)c2ccccc2)cc1` (centres undefined), the AC50 reads like this: under setting [2], 0.00447 µM [falling, full curve, poor fit]; under setting [1], 0.00447 µM [falling, full curve, poor fit].
Take `CCOC(=O)c1cn(CC)c2ccc(Br)cc2c1=O`: the AC50 under setting [1] was 0.0112 µM [falling, full curve, poor fit].
As for `CCc1nn2c(=O)cc(COC(=O)c3ccco3)nc2s1`, the AC50 is 0.00282 µM [falling, full curve] under setting [2] and 0.00316 µM [falling, full curve, poor fit] under setting [1].
Turning to `Cc1cc(=O)oc2cc(OCCSCCN3CCCCC3)ccc12`, the AC50 under setting [1] is 0.00447 µM [falling, full curve, poor fit].
For the compound `CC1CCC(NC(=O)COc2ccc(C(=O)c3ccccc3)cc2)CC1` (centres undefined), the AC50 runs as follows: under setting [2], 0.708 µM [rising, full curve]; under setting [1], 11.2 µM [rising, partial curve].
As to `COc1ccc(CNS(=O)(=O)NCc2ccccc2)cc1`, the AC50 under setting [2] was 5.62 µM [falling, full curve, poor fit].
On to `Cc1cc(=O)[nH]c(-n2[nH]c3c(c2=O)CCCC3)n1`, for which the AC50 is, setting by setting: under setting [2], 35.5 µM [falling, single point]; under setting [1], 17.8 µM [falling, partial curve].
Consider `Cc1ccc(-c2cn3c(n2)sc2cc(C(=O)NC(C)C45CC6CC(CC(C6)C4)C5)ccc23)cc1` (centres undefined), for which the AC50 under setting [2] is 7.08 µM [rising, partial curve, poor fit].
For the compound `O=C(Cn1cnc2ccccc21)N/N=C/C(Br)=C/c1ccccc1`, the AC50 under setting [2] was 10 µM [rising, partial curve] and the AC50 under setting [1] is 10 µM [rising, partial curve].
For the compound `Cc1nc2ccccc2c(-c2ccccc2)c1C(=O)c1ccccc1`, the AC50 under setting [2] was 31.6 µM [rising, single point].
As for `CC(C)CC(=O)N1CCN(c2ccc([N+](=O)[O-])cc2Cl)CC1`, the AC50 under setting [2] was 12.6 µM [rising, partial curve, poor fit] and the AC50 under setting [1] is 15.8 µM [rising, partial curve, poor fit].
Consider `Clc1ccc(C2C3=C(Nc4ncnn42)c2ccccc2CC3)cc1` (centres undefined), for which the AC50 was 25.1 µM [rising, single point] under setting [2] and 35.5 µM [rising, single point] under setting [1].
`Cc1c(O)c2c(=O)n(-c3ccccc3)c(-c3ccccc3)cc2oc1=O`: the half-maximal activity concentration (AC50) under setting [1] is 12.6 µM [rising, single point].
In the case of `NS(=O)(=O)c1ccc(NC(=S)N2CCN(c3ccc(Cl)c(Cl)c3)CC2)cc1`, the AC50 reads like this: under setting [2], 5.01 µM [rising, partial curve]; under setting [1], 20 µM [rising, partial curve].
With `COc1cccc(OCc2nnc(SCC(=O)N3c4ccccc4Sc4ccc(Cl)cc43)o2)c1`, the AC50 under setting [1] is 28.2 µM [rising, partial curve, poor fit].
`CC(C)[C@H](NC(=O)c1ccccc1F)C(=O)Nc1nc2c(s1)CCCC2`: under setting [1], the AC50 was 12.6 µM [rising, partial curve].
In the case of `CCN1CCN(c2ncc3c(n2)CCN(Cc2ccc(OC(C)C)cc2)C3)CC1`, the AC50 under setting [2] was 0.0316 µM [falling, full curve].
`Cc1ccc(-c2cc(C(=O)N/N=C/c3c(C)nn(-c4ccccc4)c3C)[nH]n2)cc1`: the AC50 under setting [1] is 1.41 µM [rising, partial curve].
For the compound `CCOc1ccc(NC(=O)c2ccccc2O)cc1`, the AC50 was 35.5 µM [rising, single point] under setting [2] and 35.5 µM [rising, single point] under setting [1].
As to `O=C(CN1CCN(S(=O)(=O)c2ccccc2)CC1)Nc1ccc([N+](=O)[O-])cc1`, the AC50 under setting [2] is 31.6 µM [rising, single point].
Same read-out and setting: the same measure for `CCOC(=O)c1cccc(NC(=O)NCc2ccc3c(c2)CCN3C(=O)c2ccccc2)c1`: 7.08 µM [falling, full curve, poor fit].
With `COc1ccc(NC(=O)CN(C)S(=O)(=O)c2ccc3c(c2)OCCO3)c2ncccc12`, the AC50 under setting [1] was 15.8 µM [rising, partial curve, poor fit].
On to `CN(Cc1ccc(F)cc1)C(=O)COc1ccccc1-c1ccccc1`, for which the AC50 under setting [2] is 0.708 µM [rising, full curve, poor fit] and the AC50 under setting [1] was 0.398 µM [rising, full curve].
On to `CCOC(=O)c1sc(Nc2nc3ccc(OC)cc3s2)cc1C`, for which the AC50 reads like this: under setting [2], 10 µM [rising, partial curve]; under setting [1], 14.1 µM [rising, partial curve].
`Cc1cc(S(=O)(=O)Nc2ccc(-c3ccc(N4CCCCCC4)nn3)cc2)c(C)cc1Cl`: the AC50 was 5.62 µM [falling, partial curve, poor fit] under setting [2] and 3.98 µM [falling, full curve, poor fit] under setting [1].
For `COC(=O)c1sc(NC(=O)c2cc(-c3ccccc3)nc3ccccc23)c(C#N)c1C`, the AC50 reads like this: under setting [2], 3.55 µM [rising, full curve, poor fit]; under setting [1], 2.82 µM [rising, full curve].
For the compound `COc1ccc(-n2nnnc2S(=O)(=O)CC(=O)N2CCCCC2)cc1`, the AC50 is, setting by setting: under setting [2], 35.5 µM [falling, single point]; under setting [1], 35.5 µM [falling, single point].
